Results: publication PMC10618185
No constants are given. Whether binding was seen depends on the method and setting. In cells and extracts the contact can be indirect. Some entries that bind do so weakly or less than the wild type. Tags and fused reporters may be left off the sequences shown.

Molecular target: T1, Myc-VPS8 (human (cDNA from HeLa Kyoto cells)) (UniProt Q8N3P4)
T1 sequence: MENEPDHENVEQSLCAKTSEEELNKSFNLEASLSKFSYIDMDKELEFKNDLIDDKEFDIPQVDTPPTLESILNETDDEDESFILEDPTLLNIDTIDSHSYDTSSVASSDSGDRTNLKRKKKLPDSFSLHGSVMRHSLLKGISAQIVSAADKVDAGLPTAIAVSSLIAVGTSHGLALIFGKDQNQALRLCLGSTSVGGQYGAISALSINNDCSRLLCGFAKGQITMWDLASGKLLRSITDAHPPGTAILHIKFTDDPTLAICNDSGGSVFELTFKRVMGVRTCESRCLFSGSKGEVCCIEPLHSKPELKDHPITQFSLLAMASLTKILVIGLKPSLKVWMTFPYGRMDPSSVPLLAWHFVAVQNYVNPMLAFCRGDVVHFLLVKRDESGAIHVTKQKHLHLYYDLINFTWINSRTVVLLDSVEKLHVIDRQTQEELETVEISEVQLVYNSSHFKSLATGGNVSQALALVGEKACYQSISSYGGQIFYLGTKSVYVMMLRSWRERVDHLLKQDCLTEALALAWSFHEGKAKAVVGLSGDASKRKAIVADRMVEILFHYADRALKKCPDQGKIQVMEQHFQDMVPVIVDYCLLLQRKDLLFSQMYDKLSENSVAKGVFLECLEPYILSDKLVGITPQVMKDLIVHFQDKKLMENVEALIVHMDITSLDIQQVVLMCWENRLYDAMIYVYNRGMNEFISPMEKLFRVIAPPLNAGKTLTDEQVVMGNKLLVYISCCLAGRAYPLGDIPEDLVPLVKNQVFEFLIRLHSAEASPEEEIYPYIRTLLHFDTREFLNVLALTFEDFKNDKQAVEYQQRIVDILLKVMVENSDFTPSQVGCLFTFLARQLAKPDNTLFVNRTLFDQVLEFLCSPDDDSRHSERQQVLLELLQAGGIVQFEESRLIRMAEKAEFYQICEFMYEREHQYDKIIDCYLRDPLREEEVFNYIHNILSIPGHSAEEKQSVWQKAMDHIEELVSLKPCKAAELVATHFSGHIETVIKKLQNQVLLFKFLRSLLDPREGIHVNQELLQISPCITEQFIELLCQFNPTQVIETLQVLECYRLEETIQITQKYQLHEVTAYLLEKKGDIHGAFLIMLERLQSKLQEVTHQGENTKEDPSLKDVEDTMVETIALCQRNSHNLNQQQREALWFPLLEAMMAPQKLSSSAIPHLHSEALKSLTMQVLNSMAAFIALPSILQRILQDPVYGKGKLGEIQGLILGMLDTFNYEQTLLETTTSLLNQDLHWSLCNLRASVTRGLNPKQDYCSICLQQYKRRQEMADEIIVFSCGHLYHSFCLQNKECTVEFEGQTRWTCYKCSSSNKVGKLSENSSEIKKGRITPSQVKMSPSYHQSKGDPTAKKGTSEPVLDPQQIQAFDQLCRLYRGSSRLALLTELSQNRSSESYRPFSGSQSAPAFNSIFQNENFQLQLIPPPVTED
Test: co-IP; WT HeLa cells with single expression of Myc-VPS41, Myc-VPS8, HA-VPS39 or HA-VPS3; lysate in PBS; IP with anti-Myc or anti-HA antibody and Protein G magnetic beads; endogenous partners detected by western blotting

- binding: binds
B1: endogenous VPS3 (protein, UniProt Q8WUH2 1-860)
chain: MMSIKAFTLVSAVERELLMGDKERVNIECVECCGRDLYVGTNDCFVYHFLLEERPVPAGPATFTATKQLQRHLGFKKPVNELRAASALNRLLVLCDNSISLVNMLNLEPVPSGARIKGAATFALNENPVSGDPFCVEVCIISVKRRTIQMFLVYEDRVQIVKEVSTAEQPLAVAVDGHFLCLALTTQYIIHNYSTGVSQDLFPYCSEERPPIVKRIGRQEFLLAGPGGLGMFATVAGISQRAPVHWSENVIGAAVSFPYVIALDDEFITVHSMLDQQQKQTLPFKEGHILQDFEGRVIVATSKGVYILVPLPLEKQIQDLLASRRVEEALVLAKGARRNIPKEKFQVMYRRILQQAGFIQFAQLQFLEAKELFRSGQLDVRELISLYPFLLPTSSSFTRSHPPLHEYADLNQLTQGDQEKMAKCKRFLMSYLNEVRSTEVANGYKEDIDTALLKLYAEADHDSLLDLLVTENFCLLTDSAAWLEKHKKYFALGLLYHYNNQDAAAVQLWVNIVNGDVQDSTRSDLYEYIVDFLTYCLDEELVWAYADWVLQKSEEVGVQVFTKRPLDEQQKNSFNPDDIINCLKKYPKALVKYLEHLVIDKRLQKEEYHTHLAVLYLEEVLLQRASASGKGAEATETQAKLRRLLQKSDLYRVHFLLERLQGAGLPMESAILHGKLGEHEKALHILVHELQDFAAAEDYCLWCSEGRDPPHRQQLFHTLLAIYLHAGPTAHELAVAAVDLLNRHATEFDAAQVLQMLPDTWSVQLLCPFLMGAMRDSIHARRTMQVALGLARSENLIYTYDKMKLKGSSIQLSDKKLCQICQNPFCEPVFVRYPNGGLVHTHCAASRHTNPSSSSPGTRT
